Measurements taken from paper PMC10163288.
The list shows a part of the results.

B1: il2ra_site1_2b5i_normal_mot_HHH_b2_06298_af2_000000056_0001_1_18_H_._HHH_b1_00536_0001_0000700045_0000001_0_af2pred_dldesign_0_af2pred (protein)
chain: SSSSSLGRLARRLLEEAEKARKNKDYEKLKELQKEVSKLVEKYKSKLLKAVLDAVQEALEESSSS
B2: il2ra_site1_1z92_normal_mot_HHH_b2_00141_000000217_0001_1_20_H_._9e5b67f2fe50fe8120620fffc4d177d6_0001_0001_0000200026_0000001_0 (protein)
chain: SLVEQIAEELERDPRFEEELARLVLKDAGGDPRFAKQYLKAIAKRAGIPPEVLERLEEIVEELVR
B3: il2ra_site1_2b5i_sap_24_mot_HHH_b1_05843_af2_000000178_0001_42_56_H_._66c2fca85847babee3b8944584cfd08f_0001_1_af2_0001_0000200021_0000001_0_0001_af2pred_0001_af … (protein)
chain: SSSSSSSKAELLREAQELLENGNPEEAQEVLEEAIERAKEKGNERTQRSLEFLLEDIRLSSSSSS
B4: il2ra_site2_3nfp_sap_18_mot_HHH_b1_03703_af2_000000206_0001_39_56_H_._HHH_b1_00697_0001_0000100006_0000001_0_0001 (protein)
chain: SSSSDEEEVEELLKELEKAIENNDPELVQRLLHRLAQLLMRIQDLEAYRVVREAYEFLDRKSSSS
B5: il2ra_site1_3nfp_sap_10_mot_HHH_b2_05615_000000234_0001_23_39_H_._HHH_b1_05775_0001_0000200011_0000001_0_0001_af2pred_0001_af2pred (protein)
chain: SSSSSSAREEVEELLEEVEELFKQGNPKEADRVFKEAARLALKANDEEAEELLEKFARNISSSSS
B6: il2ra_site2_2erj_normal_mot_HHH_b2_01353_af2_000000049_0001_23_39_H_._HHH_b1_00778_0001_0001200048_0000001_0 (protein)
chain: SSSDKEEAEELYEEAKELLERGNPEEALRVLRRASTLAFESGDEELFNRLSELVEKILRLGSSSS
B7: il2ra_site2_2erj_normal_mot_af86707857d369f3e1d85dcabc5f9321_0001_000000201_0001_14_29_H_._HHH_b2_03838_af2_0001_0000200004_0000001_0 (protein)
chain: SSSSSSSEEERAEELTEEAKEIEDPEEALRVLSEAFELAYRVGDHRLAAEVIELAHRLNSSSSSS
B8: il2ra_site1_3nfp_normal_mot_HHH_b1_01159_af2_000000107_0001_1_20_H_._HHH_b1_03088_af2_0001_0000100003_0000001_0 (protein)
chain: SSSSSDSERLEKLFREAFELAQNGNPEEAKEVLEEALELAERLGDRYTVRSLRATLRLVESSSSS
B9: il2ra_site2_2erj_normal_mot_HHH_b2_07522_000000274_0001_22_39_H_._b0b48449b8979d840ab1151e5fe11a36_0001_af2_0001_0000100003_0000001_0 (protein)
chain: DEELERLAELLRRGDPEAYRLLFELLIRIDNGDPEAEEKLREAIRLAEELGDEAVVDSLEAILRA
B10: il2ra_site1_3nfp_normal_mot_HHH_b1_05693_af2_000000134_0001_1_17_H_._22f244968cb0c360d358227666d1b6ad_0001_0001_0000100006_0000001_0 (protein)
chain: SARFAHLVLKAAARAGVPWREIARIIREADRLAGGDPRKLEELVKELLEEEDPEVYRILEELEER
B11: il2ra_site1_2b5i_normal_mot_HHH_b1_08504_af2_000000158_0001_42_54_H_._HHH_b1_06962_0001_0000600032_0000001_0_af2pred_dldesign_0_af2pred (protein)
chain: SSSSSAEDRVYDLFDEALRLHKAGKKEEAKKLLEEALALAQALGDAKLVAEVQAFLDWLESSSSS
B12: il2ra_site1_1z92_normal_mot_HHH_b1_03134_af2_000000003_0001_1_20_H_._a98962bae65c5f3da72e56aefd5e2b4a_0001_0001_0000100016_0000001_0_af2pred_0001_af2pred_1 (protein)
chain: GPEEFLEEQLRRSGVPPEEVEEILELIKRLAQGDPEAKRLLEEILKRLKEEGDPAAKVVRAALLA
B13: il2ra_site1_1z92_sap_18_mot_HHH_b2_04375_000000267_0001_42_56_H_._9983d6beee032e3819f467d055548630_0001_1_0001_0000100006_0000001_0_0001_af2pred_0001_af2pred (protein)
chain: SSSSSKEKLERDVRWLLELAKKARSPRAREIALEFARRDAKLANDPELERLVEEVEEELNSSSSS
B14: il2ra_site1_1z92_normal_mot_HHH_b2_01902_af2_000000252_0001_25_40_H_._HHH_b1_07621_0001_0000200025_0000001_0_af2pred_0001_af2pred (protein)
chain: SSSDTNELIRFALEVVIELAEELGLDEEQAQELAKLAAKLAARGLSEEEIKEELQKLAEELSSSS
B15: il2ra_site1_1z92_sap_14_mot_HHH_b2_05238_af2_000000252_0001_38_55_H_._HHH_b2_07857_0001_0000100006_0000001_0_0001 (protein)
chain: SSSSDERLERAARVVVKMLVRMNRLSEEDEEKLEELARELVERGVSFEELLKILDELAAELSSSS
B16: il2ra_site2_3nfp_sap_22_mot_HHH_b2_06150_000000230_0001_39_53_H_._HHH_b2_00046_0001_0000400027_0000001_0_0001 (protein)
chain: SDEESAEYIEAALRLAKEAARDPRIQELIEEVLEEFEKAEEKNDEHALSEVTQKAMELAELAARS
B17: il2ra_site1_3nfp_normal_mot_eb5a5eebac1e5153f932cc6c3f4b2787_0001_af2_000000065_0001_18_33_H_._437ce1e4c44253f5d945988760af7e00_0001_af2_0001_0000600037_0000001 … (protein)
chain: DNQEIARILTELVRRVPPEVAELLYEVMRLLVKGDPEQAEKVLEEILELVGDPLVEELLELVRKL
B18: il2ra_site2_2erj_normal_mot_HHH_eva_0050_af2_000000198_0001_43_62_H_._HHH_b2_03364_0001_0000100003_0000001_0 (protein)
chain: SSSSDEELRELYELLNRLLHAISRGDEELAKELTEEVQERAKENDSPVVEKVAEHLLRLLTSSSS

Target: il2ra, P01589
Assay: yeast display titration

Binder | apparent Kd
B1 | inactive: no binding seen
B2 | inactive: no binding seen
B3 | inactive: no binding seen
B4 | inactive: no binding seen
B5 | inactive: no binding seen
B6 | inactive: no binding seen
B7 | inactive: no binding seen
B8 | inactive: no binding seen
B9 | inactive: no binding seen
B10 | inactive: no binding seen
B11 | inactive: no binding seen
B12 | inactive: no binding seen
B13 | inactive: no binding seen
B14 | inactive: no binding seen
B15 | inactive: no binding seen
B16 | inactive: no binding seen
B17 | inactive: no binding seen
B18 | inactive: no binding seen

Given tab-delimited: entries from further up.
Binder	apparent Kd
B7	inactive: no binding seen
B8	inactive: no binding seen
B9	inactive: no binding seen
B10	inactive: no binding seen
